Binding data for three molecules are collected here from PMC12666738.

The chains behind the UniProt entries cited, without tags or fusion partners. Where a name states a change or a piece, a line headed by the entry shows the natural chain unless it says otherwise. Residues count along the entry.
UniProt O14936: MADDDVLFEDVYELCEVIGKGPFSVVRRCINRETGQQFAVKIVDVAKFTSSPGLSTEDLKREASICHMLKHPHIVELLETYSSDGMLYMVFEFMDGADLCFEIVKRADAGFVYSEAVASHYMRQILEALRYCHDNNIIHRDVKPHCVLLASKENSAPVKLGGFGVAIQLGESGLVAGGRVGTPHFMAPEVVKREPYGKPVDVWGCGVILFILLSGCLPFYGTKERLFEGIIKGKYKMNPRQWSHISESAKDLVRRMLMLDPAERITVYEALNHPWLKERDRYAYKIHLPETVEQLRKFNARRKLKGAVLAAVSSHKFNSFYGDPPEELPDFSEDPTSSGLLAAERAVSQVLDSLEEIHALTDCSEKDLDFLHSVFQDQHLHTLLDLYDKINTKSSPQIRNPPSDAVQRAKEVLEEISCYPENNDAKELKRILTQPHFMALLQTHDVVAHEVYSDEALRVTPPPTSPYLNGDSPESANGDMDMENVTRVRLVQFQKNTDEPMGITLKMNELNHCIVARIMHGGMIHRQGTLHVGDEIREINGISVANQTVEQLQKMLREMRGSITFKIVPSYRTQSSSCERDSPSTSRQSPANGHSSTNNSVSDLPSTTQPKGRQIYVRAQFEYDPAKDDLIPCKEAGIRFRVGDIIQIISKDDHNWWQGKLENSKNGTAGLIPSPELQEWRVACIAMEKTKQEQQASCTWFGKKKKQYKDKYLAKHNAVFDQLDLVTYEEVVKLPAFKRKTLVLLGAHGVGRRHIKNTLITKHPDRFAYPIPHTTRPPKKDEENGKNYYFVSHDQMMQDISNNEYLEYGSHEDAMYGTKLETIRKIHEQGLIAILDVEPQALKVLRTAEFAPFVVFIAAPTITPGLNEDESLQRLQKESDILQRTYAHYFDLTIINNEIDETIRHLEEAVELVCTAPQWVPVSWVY
UniProt Q63373, residues 47-468: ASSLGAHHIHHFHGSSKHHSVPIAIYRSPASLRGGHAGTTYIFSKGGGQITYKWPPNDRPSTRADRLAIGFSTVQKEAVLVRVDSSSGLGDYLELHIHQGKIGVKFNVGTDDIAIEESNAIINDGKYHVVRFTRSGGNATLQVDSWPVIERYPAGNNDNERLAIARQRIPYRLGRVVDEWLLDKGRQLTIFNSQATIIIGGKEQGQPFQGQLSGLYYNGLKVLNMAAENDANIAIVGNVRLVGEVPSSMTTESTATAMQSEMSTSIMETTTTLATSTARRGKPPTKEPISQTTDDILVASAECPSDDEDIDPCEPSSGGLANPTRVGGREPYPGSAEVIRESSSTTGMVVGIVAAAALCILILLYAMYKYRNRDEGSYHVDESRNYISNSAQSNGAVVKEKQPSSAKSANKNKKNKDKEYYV
UniProt O75334: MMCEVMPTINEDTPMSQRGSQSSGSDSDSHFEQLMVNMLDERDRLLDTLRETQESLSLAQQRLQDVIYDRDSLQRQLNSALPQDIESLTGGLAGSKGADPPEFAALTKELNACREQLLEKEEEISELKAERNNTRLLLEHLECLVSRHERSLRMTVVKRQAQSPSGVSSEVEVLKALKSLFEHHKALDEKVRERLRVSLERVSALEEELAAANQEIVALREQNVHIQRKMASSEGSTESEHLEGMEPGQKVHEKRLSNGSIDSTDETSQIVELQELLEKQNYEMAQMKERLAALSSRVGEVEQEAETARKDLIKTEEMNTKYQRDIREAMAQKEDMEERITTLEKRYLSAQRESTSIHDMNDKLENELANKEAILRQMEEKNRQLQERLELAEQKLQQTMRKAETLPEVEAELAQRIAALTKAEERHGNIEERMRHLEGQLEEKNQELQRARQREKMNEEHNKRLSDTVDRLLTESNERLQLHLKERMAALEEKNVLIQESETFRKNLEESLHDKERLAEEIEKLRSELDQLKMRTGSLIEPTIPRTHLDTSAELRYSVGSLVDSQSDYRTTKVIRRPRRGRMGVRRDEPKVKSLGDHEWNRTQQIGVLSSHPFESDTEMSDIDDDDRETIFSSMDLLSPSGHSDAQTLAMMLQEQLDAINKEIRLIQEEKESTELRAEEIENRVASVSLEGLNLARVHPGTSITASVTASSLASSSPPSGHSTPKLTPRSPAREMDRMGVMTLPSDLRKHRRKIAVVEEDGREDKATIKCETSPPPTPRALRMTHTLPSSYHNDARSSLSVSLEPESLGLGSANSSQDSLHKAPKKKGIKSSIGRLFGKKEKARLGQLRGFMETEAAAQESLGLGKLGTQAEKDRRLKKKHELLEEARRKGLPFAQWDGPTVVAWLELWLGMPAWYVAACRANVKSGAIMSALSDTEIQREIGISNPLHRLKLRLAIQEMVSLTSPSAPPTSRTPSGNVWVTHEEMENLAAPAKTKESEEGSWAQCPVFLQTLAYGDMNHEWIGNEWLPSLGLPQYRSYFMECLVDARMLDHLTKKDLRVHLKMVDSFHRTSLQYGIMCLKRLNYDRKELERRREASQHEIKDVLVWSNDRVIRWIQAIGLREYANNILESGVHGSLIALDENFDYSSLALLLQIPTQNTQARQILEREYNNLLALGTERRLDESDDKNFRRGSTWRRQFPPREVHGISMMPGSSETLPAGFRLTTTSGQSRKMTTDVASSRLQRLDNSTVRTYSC

Common to all, as to assay: co-IP; HEK293T cells cotransfected, lysed in RIPA buffer 24 h after transfection; mRFP-tagged CASK precipitated with magnetic RFP-Trap beads, 2 h at 4°C, five washes in RIPA; Western blot
The target of test [1] is mRFP-tagged CASK D624E/P625L (human) (UniProt O14936).
The target in test [2] is mRFP-tagged CASK G521V (human) (UniProt O14936).
Test [3] has as its target mRFP-tagged CASK L354P (human) (UniProt O14936).
The target in test [4] is mRFP-tagged CASK P673L (human) (UniProt O14936).
Test [5] deals with mRFP-tagged CASK W680S (human) (UniProt O14936).
Test [6] concerns the target mRFP-tagged CASK Y723C (human) (UniProt O14936).
Test [7] deals with mRFP-tagged CASK I672V (human) (UniProt O14936).
Test [8] addresses mRFP-tagged CASK L354P (human) (UniProt O14936). This is another data set of the same source.
Test [9] concerns the target mRFP-tagged CASK P673L (human) (UniProt O14936). The source holds these as a separate data set.
Test [10] has as its target mRFP-tagged CASK Y723C (human) (UniProt O14936). The source holds these as a separate data set.

Like-named read-outs stand apart in the source and are kept apart here. No constants are given. Whether binding was seen depends on the method and setting. Binding seen in cells or lysates may run through a third protein. For some assays here: A result given as binding can be weak or reduced; the word gives no strength. For some assays here: Where a sequence is shown, tags or fusion partners need not be part of it.

On to “HA-tagged Neurexin-1β (from UniProt Q63373 47-468)”, for which the binding result in test [1] is on record as “no binding”; in test [2] it was “no binding”; in test [3], “binds”; in test [4], “no binding”; in test [5] it was “binds”; in test [6], “no binding”.

“HA-tagged Liprin-α2 (from UniProt O75334 1-1257)”: the binding result in test [7] and in test [4] was “binds” in each case.

B1: FLAG-tagged CNTNAP2 (contactin associated protein 2) (protein, UniProt Q9UHC6 28-1331)
chain: APSTSQKCDEPLVSGLPHVAFSSSSSISGSYSPGYAKINKRGGAGGWSPSDSDHYQWLQVDFGNRKQISAIATQGRYSSSDWVTQYRMLYSDTGRNWKPYHQDGNIWAFPGNINSDGVVRHELQHPIIARYVRIVPLDWNGEGRIGLRIEVYGCSYWADVINFDGHVVLPYRFRNKKMKTLKDVIALNFKTSESEGVILHGEGQQGDYITLELKKAKLVLSLNLGSNQLGPIYGHTSVMTGSLLDDHHWHSVVIERQGRSINLTLDRSMQHFRTNGEFDYLDLDYEITFGGIPFSGKPSSSSRKNFKGCMESINYNGVNITDLARRKKLEPSNVGNLSFSCVEPYTVPVFFNATSYLEVPGRLNQDLFSVSFQFRTWNPNGLLVFSHFADNLGNVEIDLTESKVGVHINITQTKMSQIDISSGSGLNDGQWHEVRFLAKENFAILTIDGDEASAVRTNSPLQVKTGEKYFFGGFLNQMNNSSHSVLQPSFQGCMQLIQVDDQLVNLYEVAQRKPGSFANVSIDMCAIIDRCVPNHCEHGGKCSQTWDSFKCTCDETGYSGATCHNSIYEPSCEAYKHLGQTSNYYWIDPDGSGPLGPLKVYCNMTEDKVWTIVSHDLQMQTPVVGYNPEKYSVTQLVYSASMDQISAITDSAEYCEQYVSYFCKMSRLLNTPDGSPYTWWVGKANEKHYYWGGSGPGIQKCACGIERNCTDPKYYCNCDADYKQWRKDAGFLSYKDHLPVSQVVVGDTDRQGSEAKLSVGPLRCQGDRNYWNAASFPNPSSYLHFSTFQGETSADISFYFKTLTPWGVFLENMGKEDFIKLELKSATEVSFSFDVGNGPVEIVVRSPTPLNDDQWHRVTAERNVKQASLQVDRLPQQIRKAPTEGHTRLELYSQLFVGGAGGQQGFLGCIRSLRMNGVTLDLEERAKVTSGFISGCSGHCTSYGTNCENGGKCLERYHGYSCDCSNTAYDGTFCNKDVGAFFEEGMWLRYNFQAPATNARDSSSRVDNAPDQQNSHPDLAQEEIRFSFSTTKAPCILLYISSFTTDFLAVLVKPTGSLQIRYNLGGTREPYNIDVDHRNMANGQPHSVNITRHEKTIFLKLDHYPSVSYHLPSSSDTLFNSPKSLFLGKVIETGKIDQEIHKYNTPGFTGCLSRVQFNQIAPLKAALRQTNASAHVHIQGELVESNCGASPLTLSPMSSATDPWHLDHLDSASADFPYNPGQGQAIRNGVNRNSAIIGGVIAVVIFTILCTLVFLIRYMFRHKGTYHTNEAKGAESAESADAAIMNNDPNFTETIDESKKEWLI
For B1, the binding entry in test [8] was “binds”; in test [9], “no binding”; in test [10], “no binding”.
